Test results taken from article PMC7984842, “Genetic disruption of WASHC4 drives endo-lysosomal dysfunction and cognitive-movement impairments in mice and humans” (eLife, 2021).
These are yes or no findings as the source states them, for the method shown. Binding seen in cells or lysates may run through a third protein. Here binding means that the protein was enriched with, or labelled near, the bait; the list need not be complete. Tags and fused reporters may be left off the sequences shown.

Target: T1, WASH1-BioID2-HA (UniProt Q8VDD8)
T1 sequence: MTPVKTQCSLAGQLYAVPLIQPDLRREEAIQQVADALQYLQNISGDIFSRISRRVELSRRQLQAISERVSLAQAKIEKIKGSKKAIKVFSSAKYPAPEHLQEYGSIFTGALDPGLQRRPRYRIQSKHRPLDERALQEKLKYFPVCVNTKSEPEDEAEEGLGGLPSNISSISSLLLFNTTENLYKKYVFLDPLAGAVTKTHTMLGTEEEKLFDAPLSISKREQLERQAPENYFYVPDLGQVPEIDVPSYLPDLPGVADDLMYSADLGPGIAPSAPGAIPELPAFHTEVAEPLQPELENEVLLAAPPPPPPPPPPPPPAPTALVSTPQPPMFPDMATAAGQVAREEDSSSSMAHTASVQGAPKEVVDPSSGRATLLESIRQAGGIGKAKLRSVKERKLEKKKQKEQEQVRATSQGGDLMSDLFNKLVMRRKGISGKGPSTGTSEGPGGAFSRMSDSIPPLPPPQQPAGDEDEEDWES
Assay: proximity labelling; in vivo BioID (iBioID): AAV hSyn1-WASH1-BioID2-HA in wild-type mouse brain, biotin 24 mg/kg for 7 days, biotinylated proteins purified on NeutrAvidin beads, label-free LC-MS/MS; enrichment over solubleBioID2 control (fold-change >=4, FDR<0.05)

binding: binds
B1: SNX2 (protein, UniProt Q9CWK8 1-519)
chain: MAAEREPPPLGDVKPTDFEELEDGEDLFTSTVSTLESSPSSPEPASLPAEDISANSNGSKPVEVVLDDDREDLFAEATEEVSLDSPERELILSSEPSPAVTPVTPTTLIAPRIESKSISAPVIFDRSRDEIEEEANGDIFDIEIGVSDPEKVGDGMNAYMAYRVTTKTSLSMFSKSEFSVKRRFSDFLGLHSKLASKYLHVGYIVPPAPEKSIVGMTKVKVGKEDSSSTEFVEKRRAALERYLQRTVKHPTLLQDPDLRQFLESSELPRAVNTQALSGAGILRMVNKAADAVNKMTIKMNESDAWFEEKQQQFENLDQQLRKLHASVEALVCHRKELSANTAAFAKSAAMLGNSEDHTALSRALSQLAEVEEKIDQLHQEQAFADFYMFSELLSDYIRLIAAVKGVFDHRMKCWQKWEDAQITLLKKRETEAKMMVANKPDKIQQAKNEIREWEAKVQQGERDFEQISKTIRKEVGRFEKERVKDFKAVIIKYLESLVQTQQQLIKYWEAFLPEAKAIA
